Experimental data reported in PubChem BioAssay AID624246 (National Center for Advancing Translational Sciences (NCATS), 2012).
Out of some 370,000 compounds screened, about 100 (0.027%) were called active. Inconclusive means that the source gave no clear call. Such entries were picked first, then a sample of the others. Calls follow the shape of the dose curve; as a rule, active = well fitted inhibition curve with a large enough effect in the polarisation, with a control signal flat; inconclusive = small, poorly fitted or top-dose-only effect, or effect the other way, or a change in a side signal; inactive = no such curve, though single readings can be large or run the other way; the % refers to the polarisation. Where the call is inconclusive, the potency comes from a doubtful curve fit. A note “side channel” means that the fit belongs to a control or component signal, not to the main read-out.

The chains behind the UniProt entries cited, without tags or fusion partners. Where a name states a change or a piece, a line headed by the entry shows the natural chain unless it says otherwise.
UniProt P11308: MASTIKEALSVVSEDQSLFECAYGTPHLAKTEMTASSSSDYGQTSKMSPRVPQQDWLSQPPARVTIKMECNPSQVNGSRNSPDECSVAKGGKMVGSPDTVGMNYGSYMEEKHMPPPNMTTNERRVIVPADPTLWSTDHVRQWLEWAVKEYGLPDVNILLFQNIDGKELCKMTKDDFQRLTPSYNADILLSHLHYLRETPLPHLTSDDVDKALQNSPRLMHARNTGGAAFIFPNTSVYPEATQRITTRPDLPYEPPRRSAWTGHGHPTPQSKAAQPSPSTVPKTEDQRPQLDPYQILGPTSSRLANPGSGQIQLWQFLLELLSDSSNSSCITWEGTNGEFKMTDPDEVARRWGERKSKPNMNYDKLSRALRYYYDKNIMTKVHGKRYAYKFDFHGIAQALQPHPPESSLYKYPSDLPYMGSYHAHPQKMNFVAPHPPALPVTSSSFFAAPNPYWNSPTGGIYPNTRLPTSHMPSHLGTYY

These compounds were tested against Transcriptional regulator ERG (Homo sapiens) (UniProt P11308) (assay: qHTS for Small Molecule Inhibitors of the ERG Ets/DNA interaction). Conditions: fluorescence polarization, His-ERG Ets domain / labelled DNA; series mostly up to 76.9 µM.
In short: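 His-tagged ERG Ets domain (1 uM in the protein solution; 300mM KCl, 50mM Tris-HCl, 1mM EDTA, 1mM DTT, pH 7.5) received compound, then a probe mix of 5 nM fluorescein-DNA and 100nM Texas-615-DNA. Fluorescence polarization was read for both dyes.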
Potency is read from the fitted curve at half-maximal effect.

Row | SMILES | Potency
1 | O=C(NCCSc1c[nH]c2ccccc12)c1ccc(Cl)cc1 | inconclusive: 100 µM [inhibitor, single point]
2 | CCOc1ccc2nc(NC(=O)CCn3cccc3)sc2c1 | inactive
3 | Cc1ccccc1OC(C)C(=O)N1CCC(Cc2ccccc2)CC1 (stereo not drawn) | inactive
4 | CCCCN(C(=O)Cc1ccc(S(=O)(=O)N2CCOCC2)s1)c1c(N)n(CCCC)c(=O)[nH]c1=O | inconclusive: 11.2 µM [inhibitor, partial curve, poor fit]
5 | COc1cc(NC(=O)c2oc3c(c2C)-c2nn(Cc4cccc(Cl)c4)cc2CC3)cc(OC)c1 | inactive
6 | CN(C)c1ccc(/C=C(\C#N)c2nc(-c3ccc(Cl)c(Cl)c3)cs2)cc1 | inconclusive: 25.1 µM [inhibitor, single point]
7 | COC(=O)C/C(C)=N/Nc1ccc(S(=O)(=O)N2CCCC2)cc1[N+](=O)[O-] | inconclusive: 2.82 µM [inhibitor, partial curve, poor fit]
8 | O=C(Nc1cccc(-c2cn3ccccc3n2)c1)c1cc2ccccc2oc1=O | inactive
9 | COc1ccc(/C(N)=N/OC(=O)c2cccs2)cc1OC | inactive
10 | C=CCn1c2ccccc2c2nnc(SCC(=O)NC(C(=O)OC)C(C)C)nc21 (stereo not drawn) | inconclusive: 0.708 µM [inhibitor, full curve, poor fit]
11 | CCCN(C(=O)CCc1nc(-c2ccc(OC)cc2)no1)c1ccccc1F | inactive
12 | COc1cccc(-n2c(-c3cccc(F)c3)nc3c(cnn3-c3ccc(C)cc3)c2=O)c1 | inconclusive: 12.6 µM [quencher, side channel, partial curve, poor fit]
13 | CCOC(=O)c1c(NC(=O)CSc2nnc(-c3cccnc3)o2)sc(C(C)=O)c1C | inactive
14 | Nc1ccc(S(=O)(=O)Nc2ncccn2)cc1 | inconclusive: 11.2 µM [inhibitor, single point]
15 | Cc1ccccc1C(=O)Oc1c(Sc2ccccc2)c(C)nn1C(C)(C)C | inconclusive: 50.1 µM [inhibitor, partial curve, poor fit]
16 | O=C(CSc1nc2ccccc2o1)N/N=C/c1ccc(C(=O)O)cc1 | inconclusive: 5.62 µM [inhibitor, partial curve, poor fit]
17 | C=CCC[C@@H](Cc1ccc(F)cc1)C(=O)O[C@H](CNC(=O)[C@@H](CC=C)CC(=O)N[C@H](CO)Cc1ccccc1)c1ccccc1 | inactive
18 | O=C(CN1C(=O)/C(=C/c2cccc(Br)c2)SC1=S)NC1=NCCS1 | inconclusive: 20 µM [fluorescent, side channel, partial curve]

Some values from the entries so far.
Entry for `Cc1ccccc1OC(C)C(=O)N1CCC(Cc2ccccc2)CC1` (stereo not drawn) under Potency: inactive
Entry for `O=C(CN1C(=O)/C(=C/c2cccc(Br)c2)SC1=S)NC1=NCCS1` under Potency: inconclusive: 20 µM [fluorescent, side channel, partial curve]
